# Library screen at single concentrations

The values are deposited in ChEMBL (CHEMBL3988442, “University of Dundee, Small-Polar-MMV Screening Library” (2021)).

Mtb cholesterol medium: 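Growth of Mycobacterium tuberculosis over 4 days (cholesterol / DPPC medium with tyloxapol); the read-out is not stated. Tested at 50 µM. Higher reads as more growth inhibition (inferred: compounds with an IC50 in retests scored well above the rest). Size under these conditions: about 69,000 compounds, about 370 of them at 50% or above in at least one test.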
Mtb glucose medium: 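Whole-cell growth test on Mycobacterium tuberculosis, read after 3 days in glucose-containing 7H9 medium; the read-out is not stated. Tested at 50 µM. The record gives no direction; compounds that gave an IC50 in retests scored well above the rest, so higher reads as more growth inhibition. Of about 69,000 compounds tested this way, about 760 (1.1%) reached 50% or more in at least one test.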

Values are the deposited “Percent Effect”, in %. The record does not define 0% and 100%; most values in the screen are far below 50% and negative numbers occur (in some assays of this library far below -100). Compounds were drawn at random from those tested, without regard to their results. Two or more numbers in one place are separate tests of the same structure; such repeats can differ widely.

For COc1ccc(OC)c(C(=O)N(C)Cc2ncc(C)c(OC)c2C)c1 the result was Mtb cholesterol medium: 9.192%; Mtb glucose medium: 4.571%. CC(C)n1cc(CN(Cc2ccsc2)CC2CCCO2)cn1 (stereo unspecified) gave Mtb cholesterol medium: 11.8%; Mtb glucose medium: 10.12%. Result for O=C(O)C(F)(F)F.[H][C@]12CCN(C(=O)c3ccncc3F)[C@@]1([H])CC[C@@H](COC)O2 was Mtb cholesterol medium: -1.591%; Mtb glucose medium: 13.83%. For CN(Cc1ccc(F)cc1)C(=O)CN1CCCC(Cn2cncn2)C1 (stereo unspecified) the result was Mtb cholesterol medium: 7.821%; Mtb glucose medium: -4.849%.

Result for Cc1ccc(S(=O)(=O)N2CCC(O)(CN(C)C)C2)cc1 (stereo unspecified) was Mtb cholesterol medium: -3.552%; Mtb glucose medium: 11.03%. NC(=O)CCN(C(=O)CSc1ccc(F)cc1)c1ccc(F)cc1 read Mtb cholesterol medium: 9.196% & 5.331%; Mtb glucose medium: -61.1%. For CC(C)=CCN1CCN(Cc2cccc(C)n2)CC1CCO (stereo unspecified) the result was Mtb cholesterol medium: -4.002%; Mtb glucose medium: -13.12%. With O=C1NCCN(CC2CC2)C12CCN(Cc1ccc3c(c1)OCO3)CC2 the screen gave Mtb cholesterol medium: -72.21%; Mtb glucose medium: -70.2%.

With CN(CCc1ccccn1)[C@@H]1CCN(c2cc(C(N)=O)ccn2)C[C@H]1O the screen gave Mtb cholesterol medium: 0.9266%; Mtb glucose medium: 3.723%. COCC1CN(C(=O)c2cccn2C)Cc2cnn(C)c21 (stereo unspecified) gave Mtb cholesterol medium: -4.763% & 0.5409%; Mtb glucose medium: -2.425% & 32.48%. Cc1cc2n(n1)CC(CNCc1cnn(C)c1)CN2 (stereo unspecified) gave Mtb cholesterol medium: -0.9112%; Mtb glucose medium: -1.283%. For O=C(c1cccnc1SC/C=C/c1ccccc1)N1CC[C@H](O)C1 the result was Mtb cholesterol medium: 7.64%; Mtb glucose medium: 14.09%.

With [H][C@@]12CCN(C(=O)c3cccn3C)C[C@@]1([H])O[C@H](c1ccncn1)C2 the screen gave Mtb cholesterol medium: 5.01%; Mtb glucose medium: 8.748%. Cc1ncc(CNCCO)c2cc(C(=O)c3ccc(Br)cc3)oc12.Cl read Mtb cholesterol medium: 18.22%; Mtb glucose medium: 27.61%. N#Cc1c(Cl)nsc1N1CCN(CC2CCCCC2)CC1 gave Mtb cholesterol medium: 17.88%; Mtb glucose medium: -7.018%. With Cn1cc(Br)cc1C(=O)NC1(C#N)CC1 the screen gave Mtb cholesterol medium: -37.91%; Mtb glucose medium: 10.71%.

With COC(C)c1noc(CN(C)c2ncccn2)n1 (stereo unspecified) the screen gave Mtb cholesterol medium: -12.96%; Mtb glucose medium: -9.295%. Result for Cc1c(C)n(Cc2ccncc2)c2nc3c(c(N)c12)CCCCC3 was Mtb cholesterol medium: 22.57%; Mtb glucose medium: 43.12%. For CCC1CN(Cc2cccc(C(=O)N(C)C)c2)CCN1CCOC (stereo unspecified) the result was Mtb cholesterol medium: -3.243%; Mtb glucose medium: -13.47%. For CCN(CC)C(=O)CN(C)C(=O)c1cccn1CCc1ccccc1 the result was Mtb cholesterol medium: 20.09%; Mtb glucose medium: 1.273% & -0.5005%.

CSc1cccc(CN(C)C(=O)c2ccc(C3CCCNC3)cc2)c1 (stereo unspecified) gave Mtb cholesterol medium: 0.7453%; Mtb glucose medium: -24.66%. COCCO[C@H]1CCN(Cc2cccnc2)[C@H]1Cc1cccnc1.O=C(O)C(F)(F)F.O=C(O)C(F)(F)F.O=C(O)C(F)(F)F gave Mtb cholesterol medium: -24.34%; Mtb glucose medium: -11.97%. COCCCN(C)c1ncccc1I gave Mtb cholesterol medium: -1.883%; Mtb glucose medium: 44.67%. Result for O=C(N1CCOCC1)N1CCc2ncnc(NC3CCC3)c2CC1.O=C(O)C(F)(F)F was Mtb cholesterol medium: -1.09% & -0.8137%; Mtb glucose medium: -13.34%.

For CC(=O)N(C)c1nc(CN2CCCC2Cn2cncn2)cs1 (stereo unspecified) the result was Mtb cholesterol medium: 8.039%; Mtb glucose medium: 11.16%. Cc1ccc(CN2Cc3nnn(C)c3C(COCc3ccccc3)C2)s1.O=C(O)C(F)(F)F (stereo unspecified) gave Mtb cholesterol medium: 21.85%; Mtb glucose medium: 48.02%. With O=C(CN1CCCCCC1)NCc1cccnc1Oc1ccccc1 the screen gave Mtb cholesterol medium: 5.749%; Mtb glucose medium: 36.79%. For CC(C)(C)c1n[nH]c(C2CN(C(=O)CCCn3cccn3)CCO2)n1 (stereo unspecified) the result was Mtb cholesterol medium: 12.44%; Mtb glucose medium: 32.13%.

COC(=O)C1CCN(C(=O)c2ccc(NS(C)(=O)=O)c(C)c2)CC1 gave Mtb cholesterol medium: -7.495%; Mtb glucose medium: -9.477%. Result for CCNC(=O)C(C)NC(=O)Nc1ccccc1SC(F)(F)F (stereo unspecified) was Mtb cholesterol medium: 4.753%; Mtb glucose medium: -10.94% & 1.725%. CN(CCc1ccccn1)C(=O)Nc1cccnc1N1CCCC1 read Mtb cholesterol medium: 1.199%; Mtb glucose medium: 10.84% & -2.114%. For Cn1cnnc1-c1cncc(NCc2ccccc2Br)c1 the result was Mtb cholesterol medium: -8.355%; Mtb glucose medium: -2.777% & -0.06671%.

With Cc1noc(COCC(=O)Nc2ncccc2Br)n1 the screen gave Mtb cholesterol medium: 10.18%; Mtb glucose medium: 6.868%. For [H][C@]12CCC[C@@]1(COc1cccnc1)CN(Cc1cnn(C)c1)C2 the result was Mtb cholesterol medium: -4.604%; Mtb glucose medium: -6.538%. COCCC1(CO)CCCN(C(=O)c2cc(=O)[nH]c(=O)[nH]2)C1 (stereo unspecified) read Mtb cholesterol medium: 12.73%; Mtb glucose medium: -14.84%. With O=C1NCCCCC1NCc1csc(-c2ccsc2)n1 (stereo unspecified) the screen gave Mtb cholesterol medium: -21.82%; Mtb glucose medium: -17.65%.

Result for COc1cc(F)ccc1-c1cc(CO)ccn1 was Mtb cholesterol medium: 7.92%; Mtb glucose medium: -8.308% & 2.719%. CN(C)C(=O)c1cnc2n1CCN(Cc1ccccc1)C2.O=C(O)C(F)(F)F gave Mtb cholesterol medium: -13.97%; Mtb glucose medium: -12.23%. For Cc1ccc(CNC(=O)c2nc3c(o2)CN(C(=O)c2cccnc2)C3)o1.O=C(O)C(F)(F)F the result was Mtb cholesterol medium: -5.013%; Mtb glucose medium: -4.658% & 1.308%. Result for N#Cc1ccc(N2CCN(c3ccc4nncn4n3)CC2)nc1 was Mtb cholesterol medium: -9.065%; Mtb glucose medium: -9.249%.

Once more, the final 5:

With O=C1NCCCCC1NCc1csc(-c2ccsc2)n1 (stereo unspecified) the screen gave Mtb cholesterol medium: -21.82%; Mtb glucose medium: -17.65%.
With COc1cc(F)ccc1-c1cc(CO)ccn1 the screen gave Mtb cholesterol medium: 7.92%; Mtb glucose medium: -8.308% & 2.719%.
With CN(C)C(=O)c1cnc2n1CCN(Cc1ccccc1)C2.O=C(O)C(F)(F)F the screen gave Mtb cholesterol medium: -13.97%; Mtb glucose medium: -12.23%.
With Cc1ccc(CNC(=O)c2nc3c(o2)CN(C(=O)c2cccnc2)C3)o1.O=C(O)C(F)(F)F the screen gave Mtb cholesterol medium: -5.013%; Mtb glucose medium: -4.658% & 1.308%.
With N#Cc1ccc(N2CCN(c3ccc4nncn4n3)CC2)nc1 the screen gave Mtb cholesterol medium: -9.065%; Mtb glucose medium: -9.249%.